Assay results: the supplement of paper PMC10849652
Some of the results follow.

Chains of the proteins cited; added tags and fusions are not shown. Lines headed by an entry give the natural chain unless they say otherwise; changes in a name come on top.
UniProt P45983: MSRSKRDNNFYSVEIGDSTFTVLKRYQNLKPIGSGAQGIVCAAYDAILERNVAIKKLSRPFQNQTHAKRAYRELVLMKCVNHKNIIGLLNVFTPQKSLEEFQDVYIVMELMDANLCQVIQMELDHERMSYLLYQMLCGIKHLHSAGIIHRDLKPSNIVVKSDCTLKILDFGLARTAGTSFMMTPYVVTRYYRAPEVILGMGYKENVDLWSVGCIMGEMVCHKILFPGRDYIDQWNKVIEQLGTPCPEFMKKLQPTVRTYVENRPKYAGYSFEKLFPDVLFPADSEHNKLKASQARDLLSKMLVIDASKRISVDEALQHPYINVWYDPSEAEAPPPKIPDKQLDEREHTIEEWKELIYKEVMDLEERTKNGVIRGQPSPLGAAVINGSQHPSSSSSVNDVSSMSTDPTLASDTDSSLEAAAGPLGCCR
UniProt Q8WWC4: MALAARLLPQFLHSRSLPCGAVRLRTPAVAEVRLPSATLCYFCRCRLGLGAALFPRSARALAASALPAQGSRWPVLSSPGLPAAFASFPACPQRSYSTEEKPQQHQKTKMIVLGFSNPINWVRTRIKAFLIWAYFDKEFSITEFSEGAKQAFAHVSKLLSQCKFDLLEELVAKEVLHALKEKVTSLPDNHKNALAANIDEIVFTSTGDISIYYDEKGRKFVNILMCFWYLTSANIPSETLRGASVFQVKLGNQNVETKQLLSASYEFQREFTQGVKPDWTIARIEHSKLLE
UniProt P46734: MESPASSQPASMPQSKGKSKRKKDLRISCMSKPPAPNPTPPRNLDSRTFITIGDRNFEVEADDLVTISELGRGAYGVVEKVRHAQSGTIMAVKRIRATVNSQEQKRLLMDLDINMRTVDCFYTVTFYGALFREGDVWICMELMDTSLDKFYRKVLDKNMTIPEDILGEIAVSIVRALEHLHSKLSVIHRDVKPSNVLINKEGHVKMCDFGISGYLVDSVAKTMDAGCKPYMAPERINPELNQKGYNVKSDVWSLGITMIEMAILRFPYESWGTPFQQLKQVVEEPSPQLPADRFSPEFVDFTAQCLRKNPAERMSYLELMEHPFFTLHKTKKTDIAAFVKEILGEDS
UniProt P07948: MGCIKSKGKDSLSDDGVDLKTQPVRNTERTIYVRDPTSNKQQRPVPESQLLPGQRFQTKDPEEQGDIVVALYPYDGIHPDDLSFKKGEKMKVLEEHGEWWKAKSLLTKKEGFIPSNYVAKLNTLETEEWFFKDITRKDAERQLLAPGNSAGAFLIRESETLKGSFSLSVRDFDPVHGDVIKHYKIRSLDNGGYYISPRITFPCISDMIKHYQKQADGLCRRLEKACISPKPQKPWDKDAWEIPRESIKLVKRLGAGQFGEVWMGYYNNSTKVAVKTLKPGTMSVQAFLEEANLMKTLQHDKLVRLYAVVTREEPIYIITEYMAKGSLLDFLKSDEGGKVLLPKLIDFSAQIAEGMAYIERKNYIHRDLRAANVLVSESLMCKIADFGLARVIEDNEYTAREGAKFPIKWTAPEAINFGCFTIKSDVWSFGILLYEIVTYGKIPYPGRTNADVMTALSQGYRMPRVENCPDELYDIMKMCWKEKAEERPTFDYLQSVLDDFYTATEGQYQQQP
UniProt Q9UI95, whole entry, looked up: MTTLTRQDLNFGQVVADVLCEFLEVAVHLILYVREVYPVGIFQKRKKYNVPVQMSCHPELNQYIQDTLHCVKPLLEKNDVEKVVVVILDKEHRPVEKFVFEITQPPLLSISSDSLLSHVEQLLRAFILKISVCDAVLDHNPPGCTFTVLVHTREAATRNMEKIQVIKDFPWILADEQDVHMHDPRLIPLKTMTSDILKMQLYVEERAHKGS
UniProt Q14244: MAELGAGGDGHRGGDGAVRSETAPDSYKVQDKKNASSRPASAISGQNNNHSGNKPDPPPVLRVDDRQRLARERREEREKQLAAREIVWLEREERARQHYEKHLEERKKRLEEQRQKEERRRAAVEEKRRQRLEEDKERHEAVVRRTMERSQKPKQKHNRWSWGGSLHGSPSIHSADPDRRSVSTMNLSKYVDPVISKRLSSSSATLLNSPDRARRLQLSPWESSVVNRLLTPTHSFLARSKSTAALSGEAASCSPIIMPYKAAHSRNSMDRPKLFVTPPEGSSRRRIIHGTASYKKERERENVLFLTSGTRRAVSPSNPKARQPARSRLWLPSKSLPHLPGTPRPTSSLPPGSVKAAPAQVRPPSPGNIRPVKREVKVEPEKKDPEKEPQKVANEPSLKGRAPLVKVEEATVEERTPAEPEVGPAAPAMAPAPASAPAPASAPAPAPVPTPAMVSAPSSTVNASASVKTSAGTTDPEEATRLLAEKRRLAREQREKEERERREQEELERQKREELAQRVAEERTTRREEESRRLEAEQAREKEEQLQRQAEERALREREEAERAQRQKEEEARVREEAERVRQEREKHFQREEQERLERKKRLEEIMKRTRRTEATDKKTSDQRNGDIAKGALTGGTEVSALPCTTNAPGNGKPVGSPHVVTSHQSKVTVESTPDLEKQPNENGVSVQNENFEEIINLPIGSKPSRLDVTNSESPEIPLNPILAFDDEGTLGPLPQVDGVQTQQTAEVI
UniProt Q96GA3: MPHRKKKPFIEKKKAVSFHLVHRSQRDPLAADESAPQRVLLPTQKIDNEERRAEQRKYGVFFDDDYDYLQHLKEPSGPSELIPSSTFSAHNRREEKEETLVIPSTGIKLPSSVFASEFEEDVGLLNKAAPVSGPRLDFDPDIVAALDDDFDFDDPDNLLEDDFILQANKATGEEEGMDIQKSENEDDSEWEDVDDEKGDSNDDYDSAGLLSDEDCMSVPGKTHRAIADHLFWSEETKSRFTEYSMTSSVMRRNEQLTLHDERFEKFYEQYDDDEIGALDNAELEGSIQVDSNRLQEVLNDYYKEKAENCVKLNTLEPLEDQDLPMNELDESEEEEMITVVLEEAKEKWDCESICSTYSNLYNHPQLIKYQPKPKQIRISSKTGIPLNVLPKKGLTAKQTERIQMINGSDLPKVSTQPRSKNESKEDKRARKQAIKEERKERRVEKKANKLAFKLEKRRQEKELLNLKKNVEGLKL
UniProt Q16539, whole entry, looked up: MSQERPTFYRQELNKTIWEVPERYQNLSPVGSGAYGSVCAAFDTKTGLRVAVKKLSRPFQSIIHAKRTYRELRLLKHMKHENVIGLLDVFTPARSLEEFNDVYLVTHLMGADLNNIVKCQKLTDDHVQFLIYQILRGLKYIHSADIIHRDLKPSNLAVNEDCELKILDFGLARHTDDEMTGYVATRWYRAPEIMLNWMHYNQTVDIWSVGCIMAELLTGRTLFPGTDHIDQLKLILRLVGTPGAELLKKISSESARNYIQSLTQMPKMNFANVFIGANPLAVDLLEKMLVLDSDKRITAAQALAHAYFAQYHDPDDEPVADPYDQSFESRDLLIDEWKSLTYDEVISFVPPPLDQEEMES
UniProt Q96A72, whole entry, looked up: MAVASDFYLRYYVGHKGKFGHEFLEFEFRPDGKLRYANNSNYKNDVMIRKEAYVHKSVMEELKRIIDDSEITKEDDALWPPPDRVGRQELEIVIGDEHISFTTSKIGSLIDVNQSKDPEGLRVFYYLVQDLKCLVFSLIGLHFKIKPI
UniProt P36941: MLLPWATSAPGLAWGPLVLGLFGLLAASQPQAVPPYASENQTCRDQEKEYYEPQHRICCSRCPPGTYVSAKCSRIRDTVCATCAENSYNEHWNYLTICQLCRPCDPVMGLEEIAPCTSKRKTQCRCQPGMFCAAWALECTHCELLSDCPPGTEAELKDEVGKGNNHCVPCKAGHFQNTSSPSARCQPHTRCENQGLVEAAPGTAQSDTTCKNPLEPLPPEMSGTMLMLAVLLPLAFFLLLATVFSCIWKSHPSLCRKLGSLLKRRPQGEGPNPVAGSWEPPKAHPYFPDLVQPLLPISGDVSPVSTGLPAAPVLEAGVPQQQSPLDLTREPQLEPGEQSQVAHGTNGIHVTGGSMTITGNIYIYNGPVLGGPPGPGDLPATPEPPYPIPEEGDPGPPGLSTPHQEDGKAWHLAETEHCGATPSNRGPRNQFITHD
UniProt O43325: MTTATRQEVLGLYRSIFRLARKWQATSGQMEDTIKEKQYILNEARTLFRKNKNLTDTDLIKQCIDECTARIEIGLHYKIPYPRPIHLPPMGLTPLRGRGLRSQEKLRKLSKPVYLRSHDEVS
UniProt Q16644, whole entry, looked up: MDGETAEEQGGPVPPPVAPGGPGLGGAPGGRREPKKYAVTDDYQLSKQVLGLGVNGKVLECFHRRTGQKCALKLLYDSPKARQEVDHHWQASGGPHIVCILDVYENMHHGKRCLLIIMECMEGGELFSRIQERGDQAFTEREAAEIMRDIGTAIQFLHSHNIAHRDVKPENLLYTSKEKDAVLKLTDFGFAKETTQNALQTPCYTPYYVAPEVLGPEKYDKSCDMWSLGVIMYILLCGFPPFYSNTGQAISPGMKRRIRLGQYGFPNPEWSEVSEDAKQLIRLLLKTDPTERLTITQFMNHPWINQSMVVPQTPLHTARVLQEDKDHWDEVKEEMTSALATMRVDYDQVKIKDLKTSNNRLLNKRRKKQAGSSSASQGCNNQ
UniProt Q8TDW0: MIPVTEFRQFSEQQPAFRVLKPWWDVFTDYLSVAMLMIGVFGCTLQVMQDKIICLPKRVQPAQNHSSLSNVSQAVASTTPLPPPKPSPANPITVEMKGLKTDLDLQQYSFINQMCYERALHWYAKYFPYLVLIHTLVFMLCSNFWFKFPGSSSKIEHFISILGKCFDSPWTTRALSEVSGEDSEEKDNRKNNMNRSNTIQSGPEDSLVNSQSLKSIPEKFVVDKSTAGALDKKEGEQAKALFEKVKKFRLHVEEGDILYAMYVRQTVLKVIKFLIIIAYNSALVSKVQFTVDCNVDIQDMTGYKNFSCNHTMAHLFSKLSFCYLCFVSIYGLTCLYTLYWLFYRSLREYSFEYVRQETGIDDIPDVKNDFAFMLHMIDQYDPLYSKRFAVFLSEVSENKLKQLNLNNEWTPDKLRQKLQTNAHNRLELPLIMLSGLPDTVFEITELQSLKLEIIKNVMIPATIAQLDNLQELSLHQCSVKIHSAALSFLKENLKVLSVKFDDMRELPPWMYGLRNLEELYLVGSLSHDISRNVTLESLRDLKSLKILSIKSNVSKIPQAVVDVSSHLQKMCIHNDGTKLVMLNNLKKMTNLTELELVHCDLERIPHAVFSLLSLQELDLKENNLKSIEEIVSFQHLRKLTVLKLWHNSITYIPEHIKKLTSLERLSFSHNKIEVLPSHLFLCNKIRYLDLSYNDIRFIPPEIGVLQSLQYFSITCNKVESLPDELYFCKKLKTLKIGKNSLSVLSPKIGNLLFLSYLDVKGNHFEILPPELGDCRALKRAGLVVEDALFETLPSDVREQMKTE
UniProt P48449: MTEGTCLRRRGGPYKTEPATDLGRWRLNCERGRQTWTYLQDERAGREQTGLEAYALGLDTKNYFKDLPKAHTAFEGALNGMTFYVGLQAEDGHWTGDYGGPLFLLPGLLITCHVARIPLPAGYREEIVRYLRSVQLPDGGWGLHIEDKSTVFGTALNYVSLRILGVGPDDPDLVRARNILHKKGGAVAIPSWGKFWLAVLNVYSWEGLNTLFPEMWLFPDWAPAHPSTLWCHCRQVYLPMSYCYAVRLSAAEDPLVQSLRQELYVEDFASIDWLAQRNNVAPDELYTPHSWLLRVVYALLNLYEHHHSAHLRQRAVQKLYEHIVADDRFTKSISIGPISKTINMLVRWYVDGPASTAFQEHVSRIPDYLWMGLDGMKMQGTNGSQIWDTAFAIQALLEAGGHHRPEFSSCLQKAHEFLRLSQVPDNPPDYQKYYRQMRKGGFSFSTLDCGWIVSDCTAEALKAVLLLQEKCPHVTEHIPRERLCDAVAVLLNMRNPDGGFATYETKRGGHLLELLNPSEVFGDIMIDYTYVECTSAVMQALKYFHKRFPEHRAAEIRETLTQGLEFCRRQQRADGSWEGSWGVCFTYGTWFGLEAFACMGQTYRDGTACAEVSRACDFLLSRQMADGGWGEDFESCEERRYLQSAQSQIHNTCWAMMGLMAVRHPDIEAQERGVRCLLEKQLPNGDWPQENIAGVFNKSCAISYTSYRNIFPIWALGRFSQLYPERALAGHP
UniProt Q9UK45: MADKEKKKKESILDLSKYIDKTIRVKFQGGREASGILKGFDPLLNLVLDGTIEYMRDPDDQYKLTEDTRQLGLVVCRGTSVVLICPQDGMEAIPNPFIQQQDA

Tests used:
Experiment in all cases: log2 fold change, soluble protein after heating vs DMSO (PISA); higher = thermal stabilisation; K562 cells, 10 uM, 30 min; active = over 0.2 and 3.5 SD of the protein, either way, in both replicates (recomputed)
[1] = compound: CN1CCN(CCOc2cc(OC3CCOCC3)c3c(Nc4c(Cl)ccc5c4OCO5)ncnc3c2)CC1 [saracatinib]
Outline: (§1)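 K562 cells at 2×10^6 cells/mL were exposed to 10 μM compound for 30 min, then aliquots were heated for 3 min across 48°C-58°C, pooled, and extracted in PBS containing 0.5% NP-40 at 4°C. The supernatant after 21,000xg for 90 min was taken as soluble protein and measured by TMTpro 16plex LC-MS/MS with channel sums equalised. Thermal stability is reported relative to control samples, with values from duplicates. Fold changes are given on a log2 scale.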

[2] = compound: CN1CCN(c2nc(C3=C(c4c[nH]c5ccccc45)C(=O)NC3=O)c3ccccc3n2)CC1 [sotrastaurin]
Outline: as §1

[3] = compound: CN1CCc2c(c3ccccc3n2Cc2ccc(C(=O)NO)cc2)C1 [Tubastatin A]
Outline: as §1

[4] = compound: CNC(=O)C1=CC=CC=C1NC2=NC(=NC=C2Cl)NC3=C(C=C(C=C3)N4CCOCC4)OC
Outline: as §1

[5] = compound: CNC(=O)c1ccc(Nc2ncc(C(F)(F)F)c(NCc3nccnc3N(C)S(C)(=O)=O)n2)cc1 [defactinib]
Outline: as §1

[6] = compound: CNCc1ccc(-c2[nH]c3cc(F)cc4c3c2CCNC4=O)cc1 [rucaparib]
Outline: as §1

[7] = compound: CNc1nc(-c2ccc3c(N)n[nH]c3c2)cc(N2C[C@@H](C(=O)NC3CCCCC3)CC[C@H]2C)n1
Outline: as §1

[8] = compound: COC(=O)N[C@@H](C)CNc1nccc(-c2cn(C(C)C)nc2-c2cc(Cl)cc(NS(C)(=O)=O)c2F)n1 [encorafenib]
Outline: as §1

[9] = compound: COC(=O)[C@H](CCSC)NC(=O)C1=C(C=C(C=C1)NC[C@H](CS)N)C2=CC=CC=C2
Outline: as §1

[10] = compound: COC1=CC=C(C=C1)CN2C=CC3=C2C=C(C=C3)C(=O)NO
Outline: as §1

[11] = compound: CON(C)C(=O)N1N=C(c2cc(F)ccc2F)S[C@@]1(CCCN)c1ccccc1 [filanesib]
Outline: as §1

[12] = compound: CO[C@H]1C[C@@H]2CC[C@@H](C)[C@@](O)(O2)C(=O)C(=O)N2CCCC[C@H]2C(=O)O[C@H]([C@H](C)C[C@@H]2CC[C@H](n3cnnn3)[C@H](OC)C2)CC(=O)[C@H](C)/C=C(\C)[C@@H](O)[C@@H](OC)C(=O)[C@H](C)C[C@H](C)/C=C/C=C/C=C/1C [zotarolimus]
Outline: as §1

[13] = compound: COc1cc(C(=O)O)ccc1NC(=O)[C@@H]1N[C@@H](CC(C)(C)C)[C@](C#N)(c2ccc(Cl)cc2F)[C@H]1c1cccc(Cl)c1F [idasanutlin]
Outline: as §1

[14] = compound: COc1cc(Nc2ncc3c(n2)-c2ccc(Cl)cc2C(c2c(F)cccc2OC)=NC3)ccc1C(=O)O [alisertib]
Outline: as §1

[15] = compound: COc1cc2nc(-c3cc(F)ccc3O)nc(N[C@@H]3CNC[C@H]3C(C)(C)O)c2cc1OC
Outline: as §1

[16] = compound: COc1cc2ncnc(Nc3ccc(F)c(Cl)c3)c2cc1OCCCN1CCOCC1 [gefitinib]
Outline: as §1

[17] = compound: COc1cccc2cc(-c3nc([C@H]4CC[C@H](C(=O)O)CC4)n4ncnc(N)c34)[nH]c12
Outline: as §1

[18] = compound: CS(=O)(=O)CCNCc1ccc(-c2ccc3ncnc(Nc4ccc(OCc5cccc(F)c5)c(Cl)c4)c3c2)o1 [lapatinib]
Outline: as §1

[19] = compound: CS(=O)(=O)N1CCN(Cc2cc3nc(-c4cccc5[nH]ncc45)nc(N4CCOCC4)c3s2)CC1 [pictilisib]
Outline: as §1

[20] = compound: CN1CC[C@H](c2c(O)cc(O)c3c(=O)cc(-c4ccccc4Cl)oc23)[C@H](O)C1 [alvocidib]
Outline: as §1

Measured: log2 fold change

MAPK8 isoform 3 (UniProt P45983)
inactive: [1] -0.006 | [2] 0.052 | [3] 0.009 | [5] -0.009 | [6] 0.031 | [7] -0.07 | [8] 0.029 | [9] -0.029 | [10] 0.025 | [11] 0.064 | [12] 0.018 | [13] -0.08 | [14] 0.007 | [15] 0.234 | [16] -0.026 | [17] 0.035 | [18] -0.045 | [19] 0.287
active: [4] 0.942

MAIP1 (UniProt Q8WWC4)
inactive: [1] 0.03 | [2] 0.06 | [3] 0.028 | [4] 0.002 | [5] -0.054 | [6] -0.039 | [7] -0.04 | [8] 0.048 | [9] 0.008 | [10] 0.054 | [11] -0.12 | [12] -0.025 | [13] -0.033 | [14] -0.047 | [15] -0.088 | [16] -0.002 | [17] 0.095 | [18] 0.036 | [19] 0.01

MAP2K1 (UniProt Q02750)
inactive: [1] 0.02 | [2] 0.028 | [3] -0.018 | [4] -0.053 | [5] -0.011 | [6] -0.049 | [7] -0.005 | [8] 0.005 | [9] 0.009 | [10] 0.022 | [11] -0.05 | [12] -0.007 | [13] -0.047 | [14] -0.048 | [15] 0.02 | [16] -0.011 | [17] 0.029 | [18] -0.045 | [19] 0.04

MAPK9 (UniProt P45984)
active: [4] 0.328
inactive: [1] -0.118 | [2] 0.046 | [3] -0.013 | [5] 0.003 | [6] -0.02 | [7] 0 | [8] 0.018 | [9] 0.029 | [10] -0.004 | [11] -0.01 | [12] -0.022 | [13] -0.062 | [14] -0.072 | [15] 0.043 | [16] 0.009 | [17] 0.001 | [18] -0.039 | [19] 0.075

MAP2K3 isoform 3 (UniProt P46734)
inactive: [1] 0.024 | [2] 0.017 | [3] -0.045 | [4] -0.025 | [5] -0.063 | [6] 0.058 | [7] -0.061 | [8] -0.02 | [9] 0.003 | [10] 0.076 | [11] 0.01 | [12] -0.018 | [13] -0.019 | [14] 0.152 | [15] 0.166 | [16] -0.086 | [17] -0.022 | [18] -0.079 | [19] 0.07

LYN (UniProt P07948)
inactive: [1] -0.198 | [2] -0.08 | [3] 0.026 | [4] -0.287 | [5] -0.174 | [6] 0.13 | [7] -0.022 | [8] 0.009 | [9] 0.038 | [10] -0.074 | [11] 0.021 | [12] 0.07 | [13] -0.01 | [14] 0.002 | [15] 0.259 | [16] -0.036 | [17] 0.081 | [18] 0.011 | [19] 0.112

Reprinted from the results shown (2 entries):
MAP2K3 isoform 3 (UniProt P46734)
inactive: [1] 0.024 | [2] 0.017 | [3] -0.045 | [4] -0.025 | [5] -0.063 | [6] 0.058 | [7] -0.061 | [8] -0.02 | [9] 0.003 | [10] 0.076 | [11] 0.01 | [12] -0.018 | [13] -0.019 | [14] 0.152 | [15] 0.166 | [16] -0.086 | [17] -0.022 | [18] -0.079 | [19] 0.07

LYN (UniProt P07948)
inactive: [1] -0.198 | [2] -0.08 | [3] 0.026 | [4] -0.287 | [5] -0.174 | [6] 0.13 | [7] -0.022 | [8] 0.009 | [9] 0.038 | [10] -0.074 | [11] 0.021 | [12] 0.07 | [13] -0.01 | [14] 0.002 | [15] 0.259 | [16] -0.036 | [17] 0.081 | [18] 0.011 | [19] 0.112

Next part

MAD2L2 (UniProt Q9UI95)
inactive: [1] 0.063 | [2] 0.014 | [20] -0.078 | [4] -0.065 | [6] -0.2 | [7] 0.054 | [8] -0.002 | [10] 0.067 | [11] 0.114 | [12] 0.233 | [13] -0.12 | [19] 0.117

MAP7 isoform 7 (UniProt Q14244)
inactive: [1] -0.163 | [2] 0.012 | [20] 0.232 | [3] 0.187 | [4] 0.14 | [5] 0.437 | [6] 0.255 | [7] 0.203 | [8] 0.029 | [9] 0.078 | [10] -0.097 | [11] 0.29 | [12] 0.022 | [13] 0.093 | [14] -0.088 | [15] -0.007 | [16] 0.049 | [17] -0.214 | [18] 0.127 | [19] -0.084

LTV1 (UniProt Q96GA3)
inactive: [1] -0.09 | [2] -0.037 | [3] 0.16 | [4] 0.083 | [5] 0.145 | [6] 0.074 | [7] 0.081 | [8] 0.109 | [9] -0.061 | [10] -0.019 | [11] 0.17 | [12] 0.067 | [13] 0.133 | [14] -0.06 | [15] 0.022 | [16] -0.097 | [17] -0.095 | [18] 0.05 | [19] 0

MAPK14 isoform 2 (UniProt Q16539)
active: [8] 0.91
inactive: [1] 0.486 | [2] -0.085 | [3] 0.145 | [4] 0.559 | [5] -0.25 | [6] 0.127 | [7] -0.029 | [9] -0.014 | [10] 0 | [11] 0.016 | [12] -0.033 | [13] -0.018 | [14] -0.058 | [15] -0.005 | [16] 0.811 | [17] 0.319 | [18] -0.034 | [19] -0.114

MAGOHB (UniProt Q96A72)
inactive: [1] -0.047 | [2] -0.009 | [3] 0.014 | [4] -0.007 | [5] -0.003 | [6] -0.021 | [7] 0.022 | [8] 0.019 | [9] -0.071 | [10] -0.012 | [11] 0.018 | [12] 0.054 | [13] -0.027 | [14] 0.011 | [15] 0.144 | [16] 0 | [17] 0.024 | [18] -0.018 | [19] 0.005

LTBR (UniProt P36941)
inactive: [1] 0.058 | [2] 0.088 | [20] 0.051 | [3] 0.072 | [4] 0 | [5] 0.082 | [6] -0.261 | [7] 0.057 | [8] 0.002 | [9] 0.01 | [10] 0.03 | [11] -0.028 | [12] -0.224 | [13] -0.06 | [15] 0.059 | [18] 0.006 | [19] 0.001

LYRM1 (UniProt O43325)
inactive: [1] 0.005 | [2] 0.047 | [20] -0.069 | [3] 0.031 | [4] -0.137 | [5] -0.018 | [6] -0.065 | [7] -0.016 | [8] -0.038 | [9] -0.032 | [10] -0.025 | [11] -0.028 | [12] 0.019 | [14] -0.006 | [15] 0.029 | [16] -0.025 | [17] -0.014 | [18] 0.091 | [19] 0.135

MAPKAPK3 (UniProt Q16644)
inactive: [1] 0.134 | [2] -0.117 | [3] -0.077 | [4] 0.117 | [5] -0.051 | [6] -0.023 | [7] 0.011 | [8] 0.106 | [9] -0.01 | [10] -0.146 | [11] 0 | [12] -0.034 | [13] -0.088 | [14] 0.018 | [15] 0.037 | [16] 0.27 | [17] 0.01 | [18] -0.065 | [19] 0.039

LRRC8C (UniProt Q8TDW0)
inactive: [1] 0.102 | [2] 0.016 | [20] -0.001 | [4] 0.009 | [6] 0.002 | [7] -0.073 | [8] 0.07 | [10] 0.081 | [11] 0.07 | [12] -0.05 | [13] 0.232 | [14] -0.128 | [15] -0.087 | [16] 0.061 | [17] -0.306 | [18] -0.02 | [19] -0.295

LSS (UniProt P48449)
inactive: [1] 0.172 | [2] 0.016 | [3] 0.103 | [4] -0.091 | [5] -0.015 | [7] -0.001 | [8] 0.118 | [9] 0.074 | [10] 0.205 | [11] 0.026 | [12] -0.027 | [13] -0.116 | [14] 0.121 | [15] 0.16 | [16] 0.126 | [17] -0.014 | [18] 0.02 | [19] 0.07
active: [6] 0.595

LSM7 (UniProt Q9UK45)
inactive: [1] 0.031 | [2] 0.043 | [20] 0.02 | [3] -0.063 | [4] -0.02 | [5] 0.053 | [6] -0.06 | [7] 0.04 | [8] 0.004 | [9] 0.01 | [10] -0.059 | [11] 0.002 | [12] -0.009 | [13] -0.028 | [14] -0.099 | [15] 0.03 | [16] -0.007 | [17] 0.079 | [18] -0.032 | [19] -0.014
